Experimental findings from publication doi:10.1101/2025.04.16.649119 are described below.

Protein sequences, listed by entry. Tags and fused reporters are not part of them.
UniProt Q01844: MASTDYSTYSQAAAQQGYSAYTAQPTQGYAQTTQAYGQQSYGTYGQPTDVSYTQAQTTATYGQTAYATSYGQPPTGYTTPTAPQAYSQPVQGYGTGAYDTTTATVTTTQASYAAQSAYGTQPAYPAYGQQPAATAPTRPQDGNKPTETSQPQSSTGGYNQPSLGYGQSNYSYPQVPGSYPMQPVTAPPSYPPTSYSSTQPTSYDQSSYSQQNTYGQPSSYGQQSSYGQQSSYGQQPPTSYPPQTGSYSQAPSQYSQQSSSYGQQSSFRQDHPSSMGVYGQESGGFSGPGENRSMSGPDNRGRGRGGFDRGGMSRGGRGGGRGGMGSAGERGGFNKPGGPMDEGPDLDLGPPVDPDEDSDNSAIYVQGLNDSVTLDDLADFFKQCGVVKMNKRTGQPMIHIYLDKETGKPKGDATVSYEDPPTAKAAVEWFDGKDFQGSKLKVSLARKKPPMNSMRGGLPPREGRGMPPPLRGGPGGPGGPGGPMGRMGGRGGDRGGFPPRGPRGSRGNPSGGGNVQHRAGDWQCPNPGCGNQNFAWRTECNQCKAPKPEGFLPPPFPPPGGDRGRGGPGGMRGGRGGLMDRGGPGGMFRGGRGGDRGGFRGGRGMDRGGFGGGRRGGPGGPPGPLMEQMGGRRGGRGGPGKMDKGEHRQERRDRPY
UniProt P35637: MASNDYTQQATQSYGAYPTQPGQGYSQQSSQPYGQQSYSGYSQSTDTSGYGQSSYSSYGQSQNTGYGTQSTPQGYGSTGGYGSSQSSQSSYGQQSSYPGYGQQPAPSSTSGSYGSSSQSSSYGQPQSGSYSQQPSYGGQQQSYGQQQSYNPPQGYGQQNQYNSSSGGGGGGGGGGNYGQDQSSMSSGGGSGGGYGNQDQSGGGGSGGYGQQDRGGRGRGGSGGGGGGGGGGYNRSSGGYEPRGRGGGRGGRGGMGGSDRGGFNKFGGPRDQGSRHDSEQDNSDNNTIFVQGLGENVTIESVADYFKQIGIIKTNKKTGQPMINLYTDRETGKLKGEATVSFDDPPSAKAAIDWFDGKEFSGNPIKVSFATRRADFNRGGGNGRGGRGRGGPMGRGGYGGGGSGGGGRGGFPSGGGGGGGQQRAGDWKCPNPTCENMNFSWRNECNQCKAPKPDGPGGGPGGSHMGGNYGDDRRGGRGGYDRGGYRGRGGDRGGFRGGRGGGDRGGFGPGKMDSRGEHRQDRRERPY

No constants are given. Whether binding was seen depends on the method and setting. Some binding calls cover weakened binding; strength is not graded here.

Experiment [1] deals with EWSR1-SNAP (Ewing Sarcoma RNA binding protein 1 with a C-terminal SNAP-tag) (UniProt Q01844). As to the kind of experiment: dynamic light scattering.
Experiment [2] shares this target. The experiment in a line: nanoparticle tracking analysis.
Experiment [3] concerns the target untagged FUS (UniProt P35637). As to the kind of experiment: dynamic light scattering.

Consider “EWSR1-SNAP (Ewing Sarcoma RNA binding protein 1 with a C-terminal SNAP-tag) (from UniProt Q01844 1-656)”, for which the binding entry in experiment [1] and in experiment [2] was “binds” throughout.

On to “untagged FUS (from UniProt P35637 1-526)”, for which the binding result in experiment [3] is recorded as “no binding (condition: with 60 mM NaTS)”.
